According to patent US12258339B2, “Macrocyclic complexes of alpha-emitting radionuclides and their use in targeted radiotherapy of cancer” (Cornell University, priority 2018, dated 2025):

Assay: ^225Ac radiolabeling of macropa and DOTA (radio-TLC)
Format: physicochemical
Details: 5 min; for ^225Ac radiolabeling: ligand 0.59 μM, RT; for ^225Ac complexed: ligand 59 μM, ^225Ac 26 kBq, 0.15 M NH4OAc pH 5.5-6, RT

SMILES	^225Ac radiolabeling	^225Ac complexed
O=C(O)c1cccc(CN2CCOCCOCCN(Cc3cccc(C(=O)O)n3)CCOCCOCC2)n1 [macropa, N,N′-bis[(6-carboxy-2-pyridil)methyl]-4,13-diaza-18-crown-6]	complete	complexed all the ^225Ac
O=C(O)CN1CCN(CC(=O)O)CCN(CC(=O)O)CCN(CC(=O)O)CC1 [DOTA, 1,4,7,10-tetraazacyclododecane-1,4,7,10-tetraacetic acid, reference compound]	failed to form a complex	10%
